In PMC7283360:
The exact form of at least one protein or probe is not confirmed. For some assays here: At least one verdict rests on a figure or table, not on a statement of the authors.

Assays:
[1] = target: HUαE34KαE34K (Escherichia coli) (UniProt P0ACF0); experiment: SAXS; details: filament structures, no alternative coupling; Crystals by hanging drop at 20 °C: HUαα in 10 mM Bis-Tris pH 4.5/150 mM NaCl or pH 5.5/100 mM NaCl; E34K in 10 mM Bis-Tris pH 6.5/50 mM NaCl; recombinant protein; protein details: N-terminal His6 (pET15b, TEV site), removed by TEV
[2] = target: HUαα (HU alpha homodimer) (Escherichia coli) (UniProt P0ACF0); experiment: SAXS; details: DNA bundling, dependent on pH and salt; Crystals by hanging drop at 20 °C: HUαα in 10 mM Bis-Tris pH 4.5/150 mM NaCl or pH 5.5/100 mM NaCl; E34K in 10 mM Bis-Tris pH 6.5/50 mM NaCl; recombinant protein; protein details: N-terminal His6 (pET15b, TEV site), removed by TEV

Q: Does “AATGAGGTAACAACGAAAGCAGATGATAGCTGCTTATCAATTTGTTGCAAACAAGTAGCCGCGCCCAATGAGGTAACAAT (double strand) [80 bp DNA]” bind [1]?
A: Result: binds

Q: Does “AATGAGGTAACAACGAAAGCAGATGATAGCTGCTTATCAATTTGTTGCAAACAAGTAGCCGCGCCCAATGAGGTAACAAT (double strand) [80 bp DNA]” bind [2]?
A: Result: binds
